# Test results published in the supplement of paper PMC10338343.
# ± gives the standard deviation. The list shows a part of the results, in another mix than the full data. The uncertainty is large for many entries.
# Test system: MILI (PIWIL2) piRISC loaded with L1MC piRNA (26 nt)
# Test: pre-steady-state target cleavage rate (min^-1); MIWI and MILI are mouse PIWI proteins and EfPiwi is from a freshwater sponge; tags in brackets are library labels; higher = faster piRNA-guided slicing of the target
# Conditions: guide: L1MC piRNA 5'p-UAACUAAAUACUAUGCAAGCUGUAGG
# Summary of the method: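 A transcribed, DNA-blocked target RNA library […] was incubated at 33 °C for 0–8 or 0–960 min with 1 nM active affinity-purified piRISC carrying one synthetic guide, in HEPES–potassium acetate buffer with or without 500 nM GTSF1 partner protein. Uncleaved targets were then sequenced and normalised to depth and to weakly complementary targets. Data from three trials were pooled, with k3 capped at 0.0001 min^-1, and a burst-and-steady-state fit yielded the pre-steady-state cleavage rate.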
# [1] = auxiliary factor: 500 nM mouse GTSF1
# [2] = auxiliary factor: none (no GTSF1)
# 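Further: 1 nM active piRISC with 0.1 nM target library at 33 °C single turnover.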
Sequence,pre-steady-state target cleavage rate [1],pre-steady-state target cleavage rate [2]
UCCUGGAUGUCCUUGCAUAGUAAAUAGUUA,0.034 ± 0.0081,0.00497 ± 0.0022
UCCUGGAUGUCGAACGAUAGUAUUUAGUGUA,–,0.000122 ± 0.03
UCCUGGAACAGCUUGCAUAGAAUUUAGAAA,0.0206 ± 0.0083,0.00123 ± 0.0043
UCCUGGAACAGCUUGCAAAGUAUUUACAAA,0.0328 ± 0.01,0.000645 ± 0.011
UCCUGGAUCAGCUUGUAUAGUAUUUAGUUA,0.301 ± 0.015,–
UCCUGGAUCAGCUUGCAAAGUAUUUAGAAA,0.0827 ± 0.015,0.00184 ± 0.0034
UCCUGGAUGUGCAUGCAUAGUAUUUAGAUA,0.146 ± 0.032,0.00184 ± 0.0046
UCCUCCUACAGCUUCCUUAGUAUUUAGUUA,0.216 ± 0.025,0.00443 ± 0.002
UCCUGGAUGUCGAACCAUAGUAUUUAGGUUA,–,0.000277 ± 0.014
UCCUGCUACAGCUUGCAUUCUAUUUAGUUA,0.0454 ± 0.0087,0.00339 ± 0.0024
UCCUGGAUCAGCUUGCAUAGUAUUUACGUUA,0.243 ± 0.027,0.00431 ± 0.0028
UCCUGGAUGUCGAACGUAAGUCAUUUAGUUA,–,0.000145 ± 0.03
UCCUGGUACAGCUUGCAUAGUAUUUAAUUA,0.0793 ± 0.022,0.00528 ± 0.0035
UCCUCCUACAGCUUGCAUAGUAUAUUGUUA,0.128 ± 0.019,0.00269 ± 0.0025
UCCUCCUACACCUUGCAUAGUAUUUACUUA,0.128 ± 0.038,0.00167 ± 0.0044
UCCUGGAUGUCGAACGUAAGUAAAAAGUUA,–,0.000301 ± 0.012
UCCUGGAUGUCCUUGCAUAGUAUUUUGUUA,–,0.00228 ± 0.0041
UCCUGGAUGUCGUUGCAUUGUAUUUUGUUA,0.00231 ± 0.0068,0.000796 ± 0.0091
UCCUGCUACAGCUUGCAUAGUAAUUUAGUUA,0.233 ± 0.023,0.00525 ± 0.0024

Sequence,pre-steady-state target cleavage rate [1],pre-steady-state target cleavage rate [2]
UCCUGGAUGUCGUUGCAUUGAAUUUAGUUA,0.0014 ± 0.0062,0.000807 ± 0.0051
UCCUGGAUCAGGUUGCAUAGUAAUUAGUUA,0.152 ± 0.015,0.00739 ± 0.0017
UCCUCGAACAGCUUGCAUAGUAUUUACAAA,0.0992 ± 0.021,0.00165 ± 0.0038
UCCUGGAACUGCUUGGAUAGUAUUUAGUUA,0.222 ± 0.013,0.0109 ± 0.0023
UCCUGGAUGUCGAACGUAUCUAUUUCAGUUA,< 0.0001,0.000176 ± 0.029
UCCUGGUACAGCUAGGAUAGUAUUUAGUUA,0.191 ± 0.026,0.00723 ± 0.0022
UCCUCCUACAGCUUGCUUAGUAUUUACUUA,0.179 ± 0.02,0.00341 ± 0.0022
UCCUCCUACAGCAUGCAUAGUAAUUAGUUA,0.251 ± 0.024,0.00544 ± 0.0019
UCCUGGAACAGCAAGCAUAGUAUUUAGUUA,0.275 ± 0.018,0.00588 ± 0.0024
UCCUCCUACAGCUUGGAUAGUAUUUAGUUA,0.294 ± 0.017,0.0109 ± 0.003
UCCUGGAUGUCGUUGCAUACUUUUUAGUUA,0.000761 ± 0.009,0.000824 ± 0.0075
UCCUGGAUGUGCUUGCAUAGUAUUUAGUUUA,0.141 ± 0.015,0.00735 ± 0.0032
UCCUGGAUGUCCUAUGCAUAGUAUUUAGUUA,0.0987 ± 0.02,0.00575 ± 0.0022
UCCUCCUACAGCUUGCAUACAAUUUAGUUA,0.00727 ± 0.0046,0.00218 ± 0.0028
UCCUGCUACAGCUUGCAUUGUAUUAAGUUA,0.215 ± 0.03,0.00215 ± 0.0038
UCCUGCUACAGCAUGCAUAGUAUUUAGUUA,0.353 ± 0.022,0.00853 ± 0.003
UCCUGCUACAGCUUGCAUAGUAUUUAGAUA,0.15 ± 0.029,0.002 ± 0.004
UCCUGGAUGCGCUUGCAUAGUAUUUAGUUA,0.239 ± 0.016,0.0108 ± 0.0028
UCCUCCUACACCUUGCAUAGUAAUUAGUUA,0.196 ± 0.031,0.00304 ± 0.0027

Sequence,pre-steady-state target cleavage rate [1],pre-steady-state target cleavage rate [2]
UCCUCCUACUGCUUGCAUAGUAUUUACUUA,0.0701 ± 0.013,0.00215 ± 0.0026
UCCUGGUUCAGCUUGCAUAGUAUUUUGUUA,0.16 ± 0.03,0.00444 ± 0.0036
UCCUGGAUGUGCUUGCAUAGUUUUUACUUA,0.00432 ± 0.0043,0.00107 ± 0.0069
UCCUGGAUGUCGUUGAAUAGUAUUUAGUUA,0.0817 ± 0.015,0.0047 ± 0.0024
UCCUGGAUGUCGUUGCUUAGUAUUUACUUA,0.00372 ± 0.0041,0.00105 ± 0.0067
UCCUGGAUGUCGAACGAUGAGUAUUUAGUUA,0.000132 ± 0.019,< 0.0001
UCCUGCUUCAGCUUGCAUAGUAUUUUGUUA,0.144 ± 0.025,0.00322 ± 0.0024
UCCUGGAAGUGCUUGCAUAGUAUUUAGUAA,0.136 ± 0.022,0.00252 ± 0.0026
UCCUGGAACAGCUUGCAAAGUAUUUAGAUA,0.085 ± 0.014,0.00298 ± 0.0022
UCCUCCUACAGCUUGCUUAGUAUUUUGUUA,0.133 ± 0.016,0.0026 ± 0.0026
UCCUGGAUGUCGAUGCUUAGUAUUUACUUA,0.000513 ± 0.015,0.00034 ± 0.013
UCCUGGAUGUGCUUGCAUAGAAUUUAGAAA,0.00144 ± 0.007,0.00126 ± 0.0038
UCCUCCUACAGCUUGCAUAGUAUUUAAUUA,0.11 ± 0.019,0.00326 ± 0.0027
UCCUGGAUCUGCUUGCAUAGAAUUUAGUUA,0.0261 ± 0.0069,0.00138 ± 0.0034
UCCUGGAACACCUUGCAUAGUAUUAAGUUA,0.189 ± 0.034,0.00181 ± 0.0035
UCCUGGAUCUGCUUGCAUAGUAAUUAGUUA,0.2 ± 0.017,0.00416 ± 0.0027
UCCUGCUUCAGCUUGCUUAGUAUUUAGUUA,0.287 ± 0.011,0.00807 ± 0.0021
UCCUCCUAGUCCUUGCAUAGUAUUUAGUAA,0.102 ± 0.018,0.0027 ± 0.0023

# Record cards, from the list above. Order of values: pre-steady-state target cleavage rate [1] | pre-steady-state target cleavage rate [2]
# UCCUGGAACAGCUUGCAAAGUAUUUAGAUA in the list: 0.085 ± 0.014 | 0.00298 ± 0.0022
# UCCUGGAUGUCGAACGUAAGUCAUUUAGUUA in the list: – | 0.000145 ± 0.03
# UCCUGGAUGUCGAACGAUAGUAUUUAGUGUA in the list: – | 0.000122 ± 0.03
